Assay results published in PMC4673166.
No constants are given. Whether binding was seen depends on the method and setting. Binding seen in cells or lysates may run through a third protein. Some entries that bind do so weakly or less than the wild type.

Amino acid sequences for entries named in this document (tags omitted).
UniProt P10417: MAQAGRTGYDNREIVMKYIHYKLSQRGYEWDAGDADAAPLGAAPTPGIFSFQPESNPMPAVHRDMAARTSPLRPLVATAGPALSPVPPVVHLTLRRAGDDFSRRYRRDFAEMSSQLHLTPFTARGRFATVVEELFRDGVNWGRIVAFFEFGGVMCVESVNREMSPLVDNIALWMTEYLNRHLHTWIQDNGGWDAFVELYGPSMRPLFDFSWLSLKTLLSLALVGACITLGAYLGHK
UniProt Q9JLV5: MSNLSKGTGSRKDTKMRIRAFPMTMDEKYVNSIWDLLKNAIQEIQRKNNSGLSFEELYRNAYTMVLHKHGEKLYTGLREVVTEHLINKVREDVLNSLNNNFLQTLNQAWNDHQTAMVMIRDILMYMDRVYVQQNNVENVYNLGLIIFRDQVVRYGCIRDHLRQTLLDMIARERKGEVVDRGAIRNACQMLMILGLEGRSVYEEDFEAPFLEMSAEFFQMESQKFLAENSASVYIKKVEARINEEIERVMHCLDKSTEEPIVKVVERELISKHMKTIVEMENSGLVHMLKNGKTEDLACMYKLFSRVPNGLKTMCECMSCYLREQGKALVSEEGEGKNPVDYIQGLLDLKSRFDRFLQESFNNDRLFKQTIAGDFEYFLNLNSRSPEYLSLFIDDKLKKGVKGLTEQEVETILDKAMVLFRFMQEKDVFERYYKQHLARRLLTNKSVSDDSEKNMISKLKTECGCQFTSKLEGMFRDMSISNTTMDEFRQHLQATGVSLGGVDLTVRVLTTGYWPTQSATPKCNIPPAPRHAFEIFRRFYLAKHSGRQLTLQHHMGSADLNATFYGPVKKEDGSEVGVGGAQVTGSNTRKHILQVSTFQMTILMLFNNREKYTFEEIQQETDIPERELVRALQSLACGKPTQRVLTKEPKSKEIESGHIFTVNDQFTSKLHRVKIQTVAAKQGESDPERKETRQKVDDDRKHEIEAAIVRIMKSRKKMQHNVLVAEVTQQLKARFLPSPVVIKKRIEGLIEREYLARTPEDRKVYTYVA

Biological target: wt-Bcl-2 tagged with GST (UniProt P10417)
Test: co-IP; lysates of SK1 cells transfected with GST-tagged bcl-2 constructs and treated with GO6976; immunoprecipitated with anti-GST antibody, immunoblotted with anti-Keap1 or anti-Cul3 antibody

In the case of Cul3 (from UniProt Q9JLV5 1-768), the binding is reported as “binds”.
